For the assay, the target named is INTS13 (human (endogenous in lymphoblastoid cells)) (UniProt Q9NVM9). As to the kind of experiment: co-IP; anti-INTS13 antibodies pre-coupled to protein A-Sepharose CL-4B beads; whole-cell extracts (HNTG buffer) of control C702 and patients' AC438/AC439 lymphoblastoid cells, 2 h at 4°C; washes with IP150 buffer (20 mM Tris-HCl pH 7.4, 150 mM NaCl, 5 mM MgCl2, 0.1% Nonidet P-40); western blot.

The chains behind the UniProt entries cited, without tags or fusion partners.
UniProt Q9NVM9: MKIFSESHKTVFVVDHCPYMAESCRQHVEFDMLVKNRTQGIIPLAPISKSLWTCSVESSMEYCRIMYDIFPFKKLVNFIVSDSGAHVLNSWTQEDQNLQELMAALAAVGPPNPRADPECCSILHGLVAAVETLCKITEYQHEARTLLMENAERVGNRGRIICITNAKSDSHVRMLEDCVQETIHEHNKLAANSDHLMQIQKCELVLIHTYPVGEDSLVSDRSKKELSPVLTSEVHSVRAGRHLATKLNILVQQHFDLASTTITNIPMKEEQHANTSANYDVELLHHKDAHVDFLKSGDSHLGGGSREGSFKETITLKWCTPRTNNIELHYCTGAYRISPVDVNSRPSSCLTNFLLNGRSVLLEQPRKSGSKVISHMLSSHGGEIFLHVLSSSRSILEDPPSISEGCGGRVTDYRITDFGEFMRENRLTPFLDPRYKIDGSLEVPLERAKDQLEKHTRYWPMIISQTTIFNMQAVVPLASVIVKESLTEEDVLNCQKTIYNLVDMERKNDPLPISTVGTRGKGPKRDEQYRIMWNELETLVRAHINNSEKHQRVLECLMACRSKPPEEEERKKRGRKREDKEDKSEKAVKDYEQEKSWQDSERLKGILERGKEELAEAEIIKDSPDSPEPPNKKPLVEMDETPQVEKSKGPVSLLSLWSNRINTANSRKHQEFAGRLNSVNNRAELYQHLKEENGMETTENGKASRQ
UniProt Q9NVR2: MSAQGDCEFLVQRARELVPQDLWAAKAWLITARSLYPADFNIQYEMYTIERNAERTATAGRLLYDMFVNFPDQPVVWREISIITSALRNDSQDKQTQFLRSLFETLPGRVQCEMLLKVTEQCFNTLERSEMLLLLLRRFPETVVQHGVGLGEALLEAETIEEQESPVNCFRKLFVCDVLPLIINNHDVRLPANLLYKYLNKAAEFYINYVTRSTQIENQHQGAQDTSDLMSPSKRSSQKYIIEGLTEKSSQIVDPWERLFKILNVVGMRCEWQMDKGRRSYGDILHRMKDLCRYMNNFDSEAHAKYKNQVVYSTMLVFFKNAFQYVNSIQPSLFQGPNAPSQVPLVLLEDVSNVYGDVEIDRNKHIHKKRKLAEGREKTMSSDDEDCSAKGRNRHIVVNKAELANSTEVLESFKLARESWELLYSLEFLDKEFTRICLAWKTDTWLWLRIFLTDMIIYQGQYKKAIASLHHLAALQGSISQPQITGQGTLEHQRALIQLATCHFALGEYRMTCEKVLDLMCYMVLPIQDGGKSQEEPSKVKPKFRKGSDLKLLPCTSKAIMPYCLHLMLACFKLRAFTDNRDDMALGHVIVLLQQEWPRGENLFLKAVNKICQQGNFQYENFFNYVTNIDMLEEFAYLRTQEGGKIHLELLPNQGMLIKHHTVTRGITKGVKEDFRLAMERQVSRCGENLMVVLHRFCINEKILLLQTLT
UniProt Q96SY0: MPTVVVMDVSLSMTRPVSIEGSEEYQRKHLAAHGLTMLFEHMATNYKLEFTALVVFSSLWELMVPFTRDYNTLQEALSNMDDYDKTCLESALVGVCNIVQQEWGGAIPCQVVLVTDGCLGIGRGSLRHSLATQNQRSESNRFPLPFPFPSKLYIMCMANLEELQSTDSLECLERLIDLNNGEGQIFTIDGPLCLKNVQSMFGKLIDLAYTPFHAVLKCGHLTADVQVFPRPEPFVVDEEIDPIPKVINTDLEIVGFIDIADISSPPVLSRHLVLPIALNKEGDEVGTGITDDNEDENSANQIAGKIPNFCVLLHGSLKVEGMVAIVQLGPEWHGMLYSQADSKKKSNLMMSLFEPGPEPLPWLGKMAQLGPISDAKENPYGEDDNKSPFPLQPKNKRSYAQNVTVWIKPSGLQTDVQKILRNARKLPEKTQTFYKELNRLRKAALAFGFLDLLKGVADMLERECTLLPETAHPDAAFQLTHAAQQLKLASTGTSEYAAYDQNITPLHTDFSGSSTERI

No constants are given. Whether binding was seen depends on the method and setting. In cells and extracts the contact can be indirect. Some results given as binding are weak or reduced against the parent protein; the word gives no strength.

In the case of INTS10 (from UniProt Q9NVR2 1-710), the binding entry was “binds”.
Take INTS14 (from UniProt Q96SY0 1-518): the binding result is recorded as “binds”.

For the origin of these results see article PMC9881141.
